# The other results are listed elsewhere or left out. Single values are uncertain, as repeats are few or missing.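 Cells were imaged in 1,536-well plates, and nuclei stained with an antibody against cleaved PARP were counted against all DNA-stained nuclei to give the apoptosis fraction. Screening doses were chosen to leave most cells alive, and resting and induced cleaved-PARP levels differ strongly between cell lines.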
# Columns and labels:
# Test in all cases: cleaved PARP positive nuclei fraction relative to DMSO control; melanoma cells; higher = more apoptosis
# Conditions in all cases: library dose: low library concentration; 72 h
# 501Mel = system: 501Mel
# A101D = system: A101D
# A2058 = system: A2058
# A375 = system: A375
# C32 = system: C32
# CBRC008 = system: CBRC008 (line from a melanoma biopsy)
# CBRC014 = system: CBRC014 (line from a melanoma biopsy)
# CBRC016 = system: CBRC016 (line from a melanoma biopsy)
# CBRC017 = system: CBRC017 (line from a melanoma biopsy)
Structure (SMILES),cleaved PARP positive nuclei fraction (501Mel),cleaved PARP positive nuclei fraction (A101D),cleaved PARP positive nuclei fraction (A2058),cleaved PARP positive nuclei fraction (A375),cleaved PARP positive nuclei fraction (C32),cleaved PARP positive nuclei fraction (CBRC008),cleaved PARP positive nuclei fraction (CBRC014),cleaved PARP positive nuclei fraction (CBRC016),cleaved PARP positive nuclei fraction (CBRC017)
"Cc1cc(Nc2cc(N3CCN(C)CC3)nc(Sc3ccc(NC(=O)C4CC4)cc3)n2)n[nH]1 [Tozasertib] + N.N.[Cl][Pt][Cl] [cisplatin] (first compound 0.006 µM, partner dose 1.6 µM)",80.4%,106%,31.3%,103%,75.6%,49%,100%,208%,126%
"NC(=O)c1ccc(N(C(N)=O)c2c(F)cccc2F)nc1-c1ccc(F)cc1F + C[C@]12O[C@H](C[C@]1(O)CO)n1c3ccccc3c3c4c(c5c6ccccc6n2c5c31)CNC4=O [Lestaurtinib] (first compound 0.4 µM, partner dose 0.004 µM)",118%,93%,164%,128%,157%,65.3%,92.6%,51.5%,106%
"N#CC[C@H](C1CCCC1)n1cc(-c2ncnc3[nH]ccc23)cn1 [ruxolitinib] + C[As](C)SC[C@H](NC(=O)CC[C@H](N)C(=O)O)C(=O)NCC(=O)O [Darinaparsin] (first compound 1 µM, partner dose 0.4 µM)",89.6%,78.8%,93.1%,38.3%,143%,123%,95.5%,169%,106%
"Cn1cc(C2=C(c3cn(C4CCN(Cc5ccccn5)CC4)c4ccccc34)C(=O)NC2=O)c2ccccc21 [Enzastaurin] + NC(=O)c1ccc(N(C(N)=O)c2c(F)cccc2F)nc1-c1ccc(F)cc1F [VX702] (first compound 0.8 µM, partner dose 0.4 µM)",69.2%,47.7%,69.2%,183%,68.5%,110%,106%,19.5%,79.9%
"N.N.[Cl][Pt][Cl] [cisplatin] + C[C@]1(c2nc3c(C(N)=O)cccc3[nH]2)CCCN1 [Veliparib] (first compound 1.6 µM, partner dose 1.4 µM)",99%,136%,162%,202%,82.6%,174%,117%,135%,101%
"N.N.[Cl][Pt][Cl] [cisplatin] + O=C(O)c1ccc2c(c1)nc(Nc1cccc(Cl)c1)c1ccncc12 [CX4945] (first compound 1.6 µM, partner dose 0.4 µM)",69%,29.6%,176%,95%,80.3%,262%,104%,112%,213%
"CO[C@H]1C[C@@H]2CC[C@@H](C)[C@@](O)(O2)C(=O)C(=O)N2CCCC[C@H]2C(=O)O[C@H]([C@H](C)C[C@@H]2CC[C@@H](OCCO)[C@H](OC)C2)CC(=O)[C@H](C)/C=C(\C)[C@@H](O)[C@@H](OC)C(=O)[C@H](C)C[C@H](C)/C=C/C=C/C=C/1C [everolimus] + C[As](C)SC[C@H](NC(=O)CC[C@H](N)C(=O)O)C(=O)NCC(=O)O [Darinaparsin] (first compound 0.02 µM, partner dose 0.4 µM)",303%,59.2%,96.3%,733%,99.4%,177%,107%,73.7%,153%
"O=C(/C=C/c1cccnc1)NCCCCC1CCN(C(=O)c2ccccc2)CC1 + Cn1cc(C2=C(c3cn(C4CCN(Cc5ccccn5)CC4)c4ccccc34)C(=O)NC2=O)c2ccccc21 [Enzastaurin] (first compound 0.01 µM, partner dose 0.8 µM)",129%,87.7%,86.9%,538%,64%,3680%,110%,849%,467%
"C[C@]12O[C@H](C[C@]1(O)CO)n1c3ccccc3c3c4c(c5c6ccccc6n2c5c31)CNC4=O [Lestaurtinib] + CC(=O)c1c(C)c2cnc(Nc3ccc(N4CCNCC4)cn3)nc2n(C2CCCC2)c1=O [palbociclib] (first compound 0.004 µM, partner dose 0.04 µM)",105%,112%,117%,163%,108%,34.4%,115%,116%,117%
"Cn1cc(C2=C(c3cn(C4CCN(Cc5ccccn5)CC4)c4ccccc34)C(=O)NC2=O)c2ccccc21 [Enzastaurin] + Cc1nc(Nc2ncc(C(=O)Nc3c(C)cccc3Cl)s2)cc(N2CCN(CCO)CC2)n1 [dasatanib] (first compound 0.8 µM, partner dose 0.004 µM)",137%,116%,84.1%,33.2%,95.9%,30.4%,96.6%,84.3%,113%

# Single records, from the list above. Values in the order: cleaved PARP positive nuclei fraction (501Mel)	cleaved PARP positive nuclei fraction (A101D)	cleaved PARP positive nuclei fraction (A2058)	cleaved PARP positive nuclei fraction (A375)	cleaved PARP positive nuclei fraction (C32)	cleaved PARP positive nuclei fraction (CBRC008)	cleaved PARP positive nuclei fraction (CBRC014)	cleaved PARP positive nuclei fraction (CBRC016)	cleaved PARP positive nuclei fraction (CBRC017)
# Cc1cc(Nc2cc(N3CCN(C)CC3)nc(Sc3ccc(NC(=O)C4CC4)cc3)n2)n[nH]1 [Tozasertib] + N.N.[Cl][Pt][Cl] [cisplatin] (first compound 0.006 µM, partner dose 1.6 µM) as listed: 80.4%	106%	31.3%	103%	75.6%	49%	100%	208%	126%
# CO[C@H]1C[C@@H]2CC[C@@H](C)[C@@](O)(O2)C(=O)C(=O)N2CCCC[C@H]2C(=O)O[C@H]([C@H](C)C[C@@H]2CC[C@@H](OCCO)[C@H](OC)C2)CC(=O)[C@H](C)/C=C(\C)[C@@H](O)[C@@H](OC)C(=O)[C@H](C)C[C@H](C)/C=C/C=C/C=C/1C [everolimus] + C[As](C)SC[C@H](NC(=O)CC[C@H](N)C(=O)O)C(=O)NCC(=O)O [Darinaparsin] (first compound 0.02 µM, partner dose 0.4 µM) as listed: 303%	59.2%	96.3%	733%	99.4%	177%	107%	73.7%	153%
